Test results taken from the supplement of paper PMC10849652.
Some of the results follow.

By UniProt entry, the sequences of proteins in these tests, tags left out. Where a name states a change or a piece, a line headed by the entry shows the natural chain unless it says otherwise.
UniProt P43250, whole entry, looked up: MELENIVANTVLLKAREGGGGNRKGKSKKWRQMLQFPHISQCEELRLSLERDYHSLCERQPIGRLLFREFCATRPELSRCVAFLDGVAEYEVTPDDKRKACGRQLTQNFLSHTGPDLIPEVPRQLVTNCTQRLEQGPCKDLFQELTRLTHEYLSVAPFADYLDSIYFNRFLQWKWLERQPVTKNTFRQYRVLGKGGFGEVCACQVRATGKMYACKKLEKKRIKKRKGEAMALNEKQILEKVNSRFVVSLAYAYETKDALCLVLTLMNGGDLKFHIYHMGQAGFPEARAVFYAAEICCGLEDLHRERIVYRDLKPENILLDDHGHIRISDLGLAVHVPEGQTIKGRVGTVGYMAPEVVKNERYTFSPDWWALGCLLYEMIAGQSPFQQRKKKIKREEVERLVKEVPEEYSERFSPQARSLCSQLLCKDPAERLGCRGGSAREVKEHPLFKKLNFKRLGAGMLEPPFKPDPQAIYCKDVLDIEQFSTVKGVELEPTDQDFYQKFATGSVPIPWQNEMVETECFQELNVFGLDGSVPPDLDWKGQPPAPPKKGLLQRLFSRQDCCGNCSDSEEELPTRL
UniProt P69891: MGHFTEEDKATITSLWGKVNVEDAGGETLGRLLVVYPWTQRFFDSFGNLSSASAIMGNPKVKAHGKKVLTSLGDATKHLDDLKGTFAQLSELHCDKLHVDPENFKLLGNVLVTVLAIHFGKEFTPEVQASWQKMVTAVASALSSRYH
UniProt Q7Z4Q2: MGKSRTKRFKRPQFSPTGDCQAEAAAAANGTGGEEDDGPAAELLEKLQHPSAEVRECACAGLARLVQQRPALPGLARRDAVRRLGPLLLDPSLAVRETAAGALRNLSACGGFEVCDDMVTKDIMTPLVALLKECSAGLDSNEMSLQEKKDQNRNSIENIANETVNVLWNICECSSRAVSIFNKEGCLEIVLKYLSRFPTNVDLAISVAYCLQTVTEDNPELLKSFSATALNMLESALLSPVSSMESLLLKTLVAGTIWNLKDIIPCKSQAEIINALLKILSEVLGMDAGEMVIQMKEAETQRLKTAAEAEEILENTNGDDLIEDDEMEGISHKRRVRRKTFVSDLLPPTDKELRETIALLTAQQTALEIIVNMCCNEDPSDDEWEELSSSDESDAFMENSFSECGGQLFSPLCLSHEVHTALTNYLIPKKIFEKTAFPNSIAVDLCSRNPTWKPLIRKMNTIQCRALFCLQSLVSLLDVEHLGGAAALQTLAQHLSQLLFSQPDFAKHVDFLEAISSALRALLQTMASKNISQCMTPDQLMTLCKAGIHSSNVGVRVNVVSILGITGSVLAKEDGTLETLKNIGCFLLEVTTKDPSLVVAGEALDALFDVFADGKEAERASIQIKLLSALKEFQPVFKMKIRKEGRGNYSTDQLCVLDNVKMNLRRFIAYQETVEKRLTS
UniProt P08236: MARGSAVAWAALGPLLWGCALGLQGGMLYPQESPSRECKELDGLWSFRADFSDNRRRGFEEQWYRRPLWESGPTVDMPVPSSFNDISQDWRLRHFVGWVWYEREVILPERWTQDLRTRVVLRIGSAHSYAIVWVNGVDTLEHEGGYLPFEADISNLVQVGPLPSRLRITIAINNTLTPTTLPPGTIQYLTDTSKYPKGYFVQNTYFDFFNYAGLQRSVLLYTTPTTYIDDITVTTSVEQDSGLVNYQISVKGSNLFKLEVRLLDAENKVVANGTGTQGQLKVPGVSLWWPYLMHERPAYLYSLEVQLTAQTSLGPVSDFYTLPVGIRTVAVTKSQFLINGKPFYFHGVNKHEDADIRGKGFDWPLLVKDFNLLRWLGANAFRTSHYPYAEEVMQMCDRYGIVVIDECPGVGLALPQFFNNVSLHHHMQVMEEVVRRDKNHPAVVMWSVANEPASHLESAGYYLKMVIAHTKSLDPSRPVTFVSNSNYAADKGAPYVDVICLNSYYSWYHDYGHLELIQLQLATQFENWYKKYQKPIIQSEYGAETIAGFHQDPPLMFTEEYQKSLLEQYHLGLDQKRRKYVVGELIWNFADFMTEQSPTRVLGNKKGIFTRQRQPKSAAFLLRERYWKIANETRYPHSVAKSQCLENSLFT
UniProt P04921: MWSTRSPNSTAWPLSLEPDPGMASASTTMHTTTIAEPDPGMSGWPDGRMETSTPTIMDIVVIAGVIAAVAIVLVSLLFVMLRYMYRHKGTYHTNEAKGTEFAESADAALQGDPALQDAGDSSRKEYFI
UniProt O75367, whole entry, looked up: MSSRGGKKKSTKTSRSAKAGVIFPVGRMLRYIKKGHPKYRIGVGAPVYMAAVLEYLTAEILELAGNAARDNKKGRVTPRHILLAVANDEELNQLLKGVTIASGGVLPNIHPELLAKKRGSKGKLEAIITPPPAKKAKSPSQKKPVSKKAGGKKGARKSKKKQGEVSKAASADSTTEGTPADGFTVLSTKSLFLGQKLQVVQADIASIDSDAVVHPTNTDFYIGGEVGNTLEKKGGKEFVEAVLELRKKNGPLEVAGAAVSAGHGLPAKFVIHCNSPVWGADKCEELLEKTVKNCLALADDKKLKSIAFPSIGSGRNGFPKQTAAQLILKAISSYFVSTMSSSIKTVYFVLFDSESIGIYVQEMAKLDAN
UniProt Q7Z4V5: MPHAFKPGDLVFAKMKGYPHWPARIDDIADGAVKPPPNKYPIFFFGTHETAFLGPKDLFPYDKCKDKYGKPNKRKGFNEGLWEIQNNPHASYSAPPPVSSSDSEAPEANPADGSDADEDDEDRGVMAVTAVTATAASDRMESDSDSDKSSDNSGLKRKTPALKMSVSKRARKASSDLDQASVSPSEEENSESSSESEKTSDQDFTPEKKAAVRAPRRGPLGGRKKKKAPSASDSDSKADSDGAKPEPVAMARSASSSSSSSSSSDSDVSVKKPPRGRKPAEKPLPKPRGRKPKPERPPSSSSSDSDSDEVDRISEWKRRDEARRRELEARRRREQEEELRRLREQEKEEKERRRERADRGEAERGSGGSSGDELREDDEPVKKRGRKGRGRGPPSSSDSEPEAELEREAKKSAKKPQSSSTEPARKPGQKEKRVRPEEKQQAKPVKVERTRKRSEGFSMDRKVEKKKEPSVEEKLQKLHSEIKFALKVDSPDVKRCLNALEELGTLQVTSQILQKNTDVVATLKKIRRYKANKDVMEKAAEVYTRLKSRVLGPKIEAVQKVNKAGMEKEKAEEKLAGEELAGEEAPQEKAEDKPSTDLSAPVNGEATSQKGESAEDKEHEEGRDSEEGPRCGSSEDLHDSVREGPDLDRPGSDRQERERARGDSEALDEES
UniProt P16403, whole entry, looked up: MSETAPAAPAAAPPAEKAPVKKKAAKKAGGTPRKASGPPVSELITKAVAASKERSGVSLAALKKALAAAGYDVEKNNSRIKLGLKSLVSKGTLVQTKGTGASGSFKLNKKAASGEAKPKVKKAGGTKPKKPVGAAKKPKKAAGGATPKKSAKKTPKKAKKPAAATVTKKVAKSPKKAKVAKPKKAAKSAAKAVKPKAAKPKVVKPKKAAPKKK
UniProt Q03013: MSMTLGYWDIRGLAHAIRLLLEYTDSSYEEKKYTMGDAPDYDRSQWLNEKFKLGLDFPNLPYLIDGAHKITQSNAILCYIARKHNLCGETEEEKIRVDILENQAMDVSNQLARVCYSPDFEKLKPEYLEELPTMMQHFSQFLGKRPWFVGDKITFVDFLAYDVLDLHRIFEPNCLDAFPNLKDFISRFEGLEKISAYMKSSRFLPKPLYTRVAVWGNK
UniProt P12081: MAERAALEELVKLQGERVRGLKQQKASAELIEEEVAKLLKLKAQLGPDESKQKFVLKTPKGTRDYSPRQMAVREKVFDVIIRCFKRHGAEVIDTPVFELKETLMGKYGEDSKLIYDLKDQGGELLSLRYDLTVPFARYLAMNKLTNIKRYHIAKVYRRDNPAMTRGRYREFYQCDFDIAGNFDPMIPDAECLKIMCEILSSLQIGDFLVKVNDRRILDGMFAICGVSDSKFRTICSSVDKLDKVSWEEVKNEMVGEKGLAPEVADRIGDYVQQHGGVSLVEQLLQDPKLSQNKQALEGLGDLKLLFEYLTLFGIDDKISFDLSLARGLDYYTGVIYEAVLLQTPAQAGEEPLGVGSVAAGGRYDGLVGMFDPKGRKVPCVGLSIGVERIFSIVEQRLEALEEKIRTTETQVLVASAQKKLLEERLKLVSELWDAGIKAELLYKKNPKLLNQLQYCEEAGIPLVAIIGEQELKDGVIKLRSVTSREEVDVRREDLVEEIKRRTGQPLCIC
UniProt Q7Z4H3: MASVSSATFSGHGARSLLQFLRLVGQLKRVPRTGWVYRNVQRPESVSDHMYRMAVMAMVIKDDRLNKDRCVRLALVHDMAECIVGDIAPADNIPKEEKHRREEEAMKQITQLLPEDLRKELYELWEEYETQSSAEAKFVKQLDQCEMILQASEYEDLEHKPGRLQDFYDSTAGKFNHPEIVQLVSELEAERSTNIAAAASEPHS
UniProt P46976: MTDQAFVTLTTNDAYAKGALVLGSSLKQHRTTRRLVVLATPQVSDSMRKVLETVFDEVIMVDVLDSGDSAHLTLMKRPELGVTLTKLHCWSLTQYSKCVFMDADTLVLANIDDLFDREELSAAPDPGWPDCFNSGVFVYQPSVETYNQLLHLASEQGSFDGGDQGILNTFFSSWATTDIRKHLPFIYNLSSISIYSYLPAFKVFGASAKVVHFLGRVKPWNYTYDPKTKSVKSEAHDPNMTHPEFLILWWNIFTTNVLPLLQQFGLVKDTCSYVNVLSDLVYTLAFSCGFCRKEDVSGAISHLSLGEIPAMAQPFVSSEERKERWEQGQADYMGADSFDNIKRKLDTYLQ
UniProt Q92759: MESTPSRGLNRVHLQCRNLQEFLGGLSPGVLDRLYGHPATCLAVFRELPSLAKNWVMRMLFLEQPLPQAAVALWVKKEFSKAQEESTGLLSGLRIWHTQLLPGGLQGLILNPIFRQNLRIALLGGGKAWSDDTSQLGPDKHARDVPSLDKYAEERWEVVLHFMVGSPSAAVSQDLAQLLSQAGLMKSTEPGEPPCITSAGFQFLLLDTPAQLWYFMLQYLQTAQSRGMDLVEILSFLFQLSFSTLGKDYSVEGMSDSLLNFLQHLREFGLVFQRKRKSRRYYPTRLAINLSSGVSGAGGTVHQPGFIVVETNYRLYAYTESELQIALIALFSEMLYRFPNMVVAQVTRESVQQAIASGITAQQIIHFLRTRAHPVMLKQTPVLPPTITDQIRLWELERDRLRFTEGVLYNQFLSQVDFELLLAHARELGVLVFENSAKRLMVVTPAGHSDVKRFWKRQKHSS
UniProt Q969Y2: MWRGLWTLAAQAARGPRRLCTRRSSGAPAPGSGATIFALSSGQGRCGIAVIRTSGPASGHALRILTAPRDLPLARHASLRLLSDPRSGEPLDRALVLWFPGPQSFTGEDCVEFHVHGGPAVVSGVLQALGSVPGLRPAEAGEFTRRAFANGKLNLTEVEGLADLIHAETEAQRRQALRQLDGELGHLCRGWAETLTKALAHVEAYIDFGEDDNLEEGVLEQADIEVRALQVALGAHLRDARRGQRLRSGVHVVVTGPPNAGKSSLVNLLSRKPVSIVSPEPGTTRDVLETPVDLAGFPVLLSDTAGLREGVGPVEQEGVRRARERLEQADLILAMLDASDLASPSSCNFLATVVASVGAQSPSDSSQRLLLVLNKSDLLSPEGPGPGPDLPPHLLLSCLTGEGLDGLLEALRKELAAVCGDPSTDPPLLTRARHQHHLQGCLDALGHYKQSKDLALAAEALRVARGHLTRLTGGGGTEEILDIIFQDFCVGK
UniProt Q9P0R6: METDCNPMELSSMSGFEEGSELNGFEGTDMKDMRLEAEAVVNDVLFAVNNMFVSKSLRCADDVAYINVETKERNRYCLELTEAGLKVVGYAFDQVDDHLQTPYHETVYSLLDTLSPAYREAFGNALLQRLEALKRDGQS
UniProt P69892: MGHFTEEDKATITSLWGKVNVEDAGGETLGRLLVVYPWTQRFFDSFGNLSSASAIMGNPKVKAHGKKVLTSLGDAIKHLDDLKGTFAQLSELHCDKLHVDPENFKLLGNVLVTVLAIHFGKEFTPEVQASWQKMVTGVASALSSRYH
UniProt Q68CZ6: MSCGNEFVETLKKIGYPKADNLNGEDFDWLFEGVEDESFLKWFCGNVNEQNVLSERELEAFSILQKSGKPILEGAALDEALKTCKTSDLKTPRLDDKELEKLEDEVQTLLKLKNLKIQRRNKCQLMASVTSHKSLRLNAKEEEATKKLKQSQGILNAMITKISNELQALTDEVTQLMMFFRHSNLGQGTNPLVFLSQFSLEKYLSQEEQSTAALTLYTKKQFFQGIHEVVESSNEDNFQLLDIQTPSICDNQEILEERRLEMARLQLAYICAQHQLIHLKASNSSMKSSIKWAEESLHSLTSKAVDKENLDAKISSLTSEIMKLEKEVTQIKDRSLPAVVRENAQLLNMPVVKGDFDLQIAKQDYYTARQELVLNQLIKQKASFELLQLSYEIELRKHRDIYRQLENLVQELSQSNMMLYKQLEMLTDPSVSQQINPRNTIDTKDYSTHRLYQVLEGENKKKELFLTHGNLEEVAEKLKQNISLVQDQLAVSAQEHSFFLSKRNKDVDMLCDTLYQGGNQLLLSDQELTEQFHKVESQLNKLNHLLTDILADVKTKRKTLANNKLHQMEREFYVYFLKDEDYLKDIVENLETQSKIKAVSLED

How the values were obtained:
Assay in all cases: log2 fold change, soluble protein after heating vs DMSO (PISA); higher = thermal stabilisation; K562 lysate, 10 uM; active = over 0.2 and 3.5 SD of the protein, either way, in both replicates (recomputed)
[1] = compound: C#Cc1cccc(Nc2ncnc3cc(OCCOC)c(OCCOC)cc23)c1 [erlotinib]
Procedure, shortened: (§1)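 Soluble protein was defined as the supernatant remaining after 21,000xg for 90 min, following pooling of heated aliquots and adjustment to 0.5% NP-40 at 4°C. Before that, crude K562 extract at 1 mg/mL protein in PBS pH 7.4 with 1 mM MgCl2 was treated with 10 μM compound for 30 min and heated for 3 min across 48°C-58°C. Quantification used TMTpro 16plex LC-MS/MS with channel sums equalised, and values are log-two fold changes in thermal stability relative to solvent controls from duplicates.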

[2] = compound: C/C(=N\NC(=O)C1=CC(=CC=C1)S(=O)(=O)N2CCOCC2)/C3=C(C=CC(=C3)Cl)O
Procedure, shortened: as §1

[3] = compound: C1=CC(=CC=C1C2=NC3=C(N2)C=C(C=C3)C(=O)N)OC4=CC=C(C=C4)Cl
Procedure, shortened: as §1

[4] = compound: C1=CC2=C(C=CC(=C2)/C=C\3/C(=O)NC(=NCC4=CC=CS4)S3)N=C1
Procedure, shortened: as §1

[5] = compound: C1=CC2=NC=CN=C2C=C1/C=C/3\C(=O)NC(=O)S3
Procedure, shortened: as §1

[6] = compound: C1=CC=C(C=C1)C2=NC(=C(N2)C3=CC=NC=C3)C4=CC(=C(C=C4)Cl)O
Procedure, shortened: as §1

[7] = compound: C1=CC=C2C(=C1)C3=NNC4=CC=CC(=C43)C2=O
Procedure, shortened: as §1

[8] = compound: C1CCN(C1)C(=O)NC2=CC=CC(=C2)NC3=NC=C(C(=N3)NCCC4=CN=CN4)Br
Procedure, shortened: as §1

[9] = compound: C1CN(CCC1(CC2=CC=C(C=C2)Cl)N)C3=NC=NC4=C3C=CN4
Procedure, shortened: as §1

[10] = compound: C1COCCN1CCN2C3=CC=CC=C3N=C2NC(=O)C4=CC(=CC=C4)[N+](=O)[O-] [IRAK-1-4 Inhibitor I]
Procedure, shortened: as §1

Measured: log2 fold change

GRWD1 (UniProt Q9BQ67)
inactive: [1] -0.027 | [2] -0.129 | [3] 0.053 | [4] -0.008 | [5] -0.002 | [6] -0.013 | [7] -0.013 | [8] 0.015 | [9] 0.036 | [10] 0.008

GSTCD (UniProt Q8NEC7)
inactive: [1] 0.041 | [2] -0.017 | [3] -0.037 | [4] 0.033 | [5] -0.027 | [6] 0.012 | [7] -0.021 | [8] -0.028 | [9] 0.005 | [10] -0.055

GRHPR (UniProt Q9UBQ7)
inactive: [1] 0.021 | [2] -0.002 | [3] 0.044 | [4] -0.008 | [5] -0.009 | [6] -0.032 | [7] -0.014 | [8] 0.015 | [9] 0.039 | [10] 0.008

HDAC8 (UniProt Q9BY41)
inactive: [1] -0.015 | [2] -0.028 | [3] -0.132 | [4] 0.012 | [5] -0.052 | [6] -0.037 | [7] -0.001 | [8] 0.027 | [9] -0.061 | [10] 0.008

GRK6 isoform 2 (UniProt P43250)
inactive: [1] -0.014 | [2] -0.126 | [3] 0.015 | [4] -0.009 | [5] -0.046 | [6] -0.063 | [7] 0.284 | [8] -0.161 | [9] 0.108 | [10] 0.053

HBG1 (UniProt P69891)
inactive: [1] 0 | [2] -0.008 | [3] -0.022 | [4] 0.054 | [5] 0.015 | [6] -0.014 | [7] 0.047 | [8] 0.018 | [9] 0.067 | [10] -0.017

HEATR3 (UniProt Q7Z4Q2)
inactive: [1] 0.002 | [2] 0.029 | [3] -0.064 | [4] -0.015 | [5] 0.02 | [6] -0.022 | [7] -0.052 | [8] -0.002 | [9] 0.006 | [10] -0.001

HBE1 (UniProt P02100)
inactive: [1] 0.013 | [2] -0.071 | [3] -0.028 | [4] 0.037 | [5] 0.002 | [6] 0.005 | [7] 0.023 | [8] -0.002 | [9] 0.046 | [10] -0.006

GUSB (UniProt P08236)
inactive: [1] -0.053 | [2] -0.043 | [3] 0.135 | [4] -0.072 | [5] -0.041 | [6] -0.058 | [7] -0.072 | [8] -0.003 | [9] 0.055 | [10] 0.066

GYPC (UniProt P04921)
inactive: [1] 0.163 | [2] -0.135 | [3] -0.114 | [4] 0.082 | [5] -0.085 | [6] 0.129 | [7] -0.009 | [8] -0.013 | [9] 0.011 | [10] 0.018

HBZ (UniProt P02008)
inactive: [1] -0.008 | [2] -0.004 | [3] -0.041 | [4] 0.004 | [5] -0.005 | [6] -0.025 | [7] 0.017 | [8] -0.006 | [9] 0.028 | [10] -0.007

H2AFY (UniProt O75367)
inactive: [1] 0.02 | [2] -0.026 | [3] 0.049 | [4] 0.069 | [5] 0.013 | [6] 0.069 | [7] 0.081 | [8] -0.051 | [9] -0.113 | [10] 0.02

HDGFL2 isoform 2 (UniProt Q7Z4V5)
inactive: [1] -0.008 | [2] -0.028 | [3] 0.032 | [4] -0.008 | [5] -0.03 | [6] 0.027 | [7] 0.01 | [8] 0 | [9] 0.021 | [10] 0

HDAC6 (UniProt Q9UBN7)
inactive: [1] -0.025 | [2] -0.002 | [3] -0.025 | [4] -0.006 | [5] -0.014 | [6] -0.042 | [7] -0.034 | [8] -0.001 | [9] -0.023 | [10] 0.008

H1-2 (UniProt P16403)
inactive: [1] -0.013 | [2] -0.03 | [3] 0.015 | [4] 0.02 | [5] -0.051 | [6] 0.026 | [7] 0.056 | [8] 0.047 | [9] 0.013 | [10] -0.03

GSTM4 (UniProt Q03013)
inactive: [1] 0.006 | [2] -0.044 | [3] -0.073 | [4] -0.026 | [5] 0.141 | [6] 0.046 | [7] -0.025 | [8] -0.109 | [9] -0.025 | [10] -0.064

GTF2F1 (UniProt P35269)
inactive: [1] -0.003 | [2] -0.015 | [3] 0.014 | [4] 0.001 | [5] -0.04 | [6] -0.008 | [7] -0.005 | [8] -0.002 | [9] 0.005 | [10] 0.032

HARS (UniProt P12081)
inactive: [1] -0.034 | [2] 0.006 | [3] -0.002 | [4] 0.021 | [5] -0.036 | [6] -0.005 | [7] 0.019 | [8] -0.016 | [9] 0.001 | [10] -0.002

HDDC2 (UniProt Q7Z4H3)
inactive: [1] 0.032 | [2] 0.061 | [3] -0.023 | [4] 0.027 | [5] -0.025 | [6] 0.01 | [7] 0.048 | [8] 0.039 | [9] 0.055 | [10] 0.017

2 neighbouring records out of the list so far, for reference:
GTF2F1 (UniProt P35269)
inactive: [1] -0.003 | [2] -0.015 | [3] 0.014 | [4] 0.001 | [5] -0.04 | [6] -0.008 | [7] -0.005 | [8] -0.002 | [9] 0.005 | [10] 0.032

HARS (UniProt P12081)
inactive: [1] -0.034 | [2] 0.006 | [3] -0.002 | [4] 0.021 | [5] -0.036 | [6] -0.005 | [7] 0.019 | [8] -0.016 | [9] 0.001 | [10] -0.002

The results go on.

GYG1 isoform 2 (UniProt P46976)
inactive: [1] 0.025 | [2] -0.05 | [3] 0.22 | [4] 0.051 | [5] 0 | [6] 0.027 | [7] 0.459 | [8] 0.009 | [9] -0.047 | [10] 0.03

UniProt H0YHG0
inactive: [1] -0.003 | [2] -0.152 | [3] 0.015 | [4] -0.01 | [5] -0.019 | [6] 0.023 | [7] -0.017 | [8] 0.023 | [9] -0.008 | [10] 0.011

GTF2H4 (UniProt Q92759)
inactive: [1] -0.013 | [2] -0.049 | [3] -0.013 | [4] 0.037 | [5] -0.059 | [6] -0.001 | [7] 0.141 | [8] 0.056 | [9] -0.004 | [10] -0.044

GTPBP3 isoform 2 (UniProt Q969Y2)
inactive: [1] 0.06 | [2] -0.061 | [3] -0.015 | [4] -0.081 | [5] -0.066 | [6] 0.05 | [7] -0.101 | [8] 0.123 | [9] -0.127 | [10] 0.021

HDLBP, A0A024R4E5
inactive: [1] 0.043 | [2] 0.008 | [3] 0.02 | [4] -0.001 | [5] -0.024 | [6] -0.001 | [7] -0.046 | [8] -0.003 | [9] 0.004 | [10] -0.005

GSKIP (UniProt Q9P0R6)
inactive: [1] -0.233 | [2] -0.063 | [3] -0.125 | [4] 0.07 | [5] 0.001 | [6] -0.054 | [7] -0.199 | [8] -0.032 | [9] 0.001 | [10] -0.045

HBG2 (UniProt P69892)
inactive: [1] 0.015 | [2] 0.034 | [3] -0.002 | [4] 0.045 | [5] 0.007 | [6] -0.001 | [7] 0.021 | [8] 0.005 | [9] 0.04 | [10] -0.022

HAUS3 (UniProt Q68CZ6)
inactive: [1] 0.022 | [2] 0.01 | [3] -0.033 | [4] 0.016 | [5] -0.028 | [6] 0.004 | [7] -0.06 | [8] -0.045 | [9] 0.019 | [10] 0.025
